The text below walks through data of paper PMC12697806.

By UniProt entry, the sequences of proteins in these tests, tags left out.
UniProt Q15365: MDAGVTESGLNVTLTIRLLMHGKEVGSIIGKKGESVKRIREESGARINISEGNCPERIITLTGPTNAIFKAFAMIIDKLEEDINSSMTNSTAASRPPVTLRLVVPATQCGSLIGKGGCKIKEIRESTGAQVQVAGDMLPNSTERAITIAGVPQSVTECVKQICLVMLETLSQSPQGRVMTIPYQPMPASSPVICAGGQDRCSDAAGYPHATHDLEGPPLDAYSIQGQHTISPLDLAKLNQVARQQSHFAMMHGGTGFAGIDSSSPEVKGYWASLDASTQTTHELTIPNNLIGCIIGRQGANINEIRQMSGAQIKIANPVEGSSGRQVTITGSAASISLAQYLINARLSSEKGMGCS

These are yes or no findings as the source states them, for the method shown. Binding seen in cells or lysates may run through a third protein. Some entries that bind do so weakly or less than the wild type. For some assays here: Sequences can lack the tags named with a protein.

For one experiment, the target named is T1, Flag‐OGT (UniProt O15294).
T1 sequence: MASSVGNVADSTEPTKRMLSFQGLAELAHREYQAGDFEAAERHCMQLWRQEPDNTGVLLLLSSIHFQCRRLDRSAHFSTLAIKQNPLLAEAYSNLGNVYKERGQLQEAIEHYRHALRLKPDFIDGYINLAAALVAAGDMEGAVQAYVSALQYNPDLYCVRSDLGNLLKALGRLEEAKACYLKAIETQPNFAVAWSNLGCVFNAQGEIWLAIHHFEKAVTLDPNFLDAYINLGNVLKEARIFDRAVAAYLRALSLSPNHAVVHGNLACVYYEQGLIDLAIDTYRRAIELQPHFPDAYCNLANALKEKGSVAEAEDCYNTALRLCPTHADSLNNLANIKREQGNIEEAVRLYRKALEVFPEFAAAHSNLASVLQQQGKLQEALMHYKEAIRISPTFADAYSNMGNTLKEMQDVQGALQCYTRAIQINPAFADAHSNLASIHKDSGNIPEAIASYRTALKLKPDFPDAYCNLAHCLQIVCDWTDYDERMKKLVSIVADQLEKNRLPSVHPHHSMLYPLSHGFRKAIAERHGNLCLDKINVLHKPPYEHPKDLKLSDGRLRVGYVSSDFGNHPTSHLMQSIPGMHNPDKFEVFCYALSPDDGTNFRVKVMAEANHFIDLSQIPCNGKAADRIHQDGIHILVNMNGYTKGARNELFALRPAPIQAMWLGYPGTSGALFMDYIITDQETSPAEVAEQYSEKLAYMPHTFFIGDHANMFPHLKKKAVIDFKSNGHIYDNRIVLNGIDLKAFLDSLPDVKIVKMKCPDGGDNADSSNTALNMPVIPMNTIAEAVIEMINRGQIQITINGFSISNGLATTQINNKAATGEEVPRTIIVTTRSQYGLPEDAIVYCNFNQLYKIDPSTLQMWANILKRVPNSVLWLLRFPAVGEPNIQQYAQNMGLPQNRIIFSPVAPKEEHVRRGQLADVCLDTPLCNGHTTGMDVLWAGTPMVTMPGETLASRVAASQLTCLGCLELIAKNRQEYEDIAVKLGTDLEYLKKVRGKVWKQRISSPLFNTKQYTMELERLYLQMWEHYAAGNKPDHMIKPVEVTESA
Nature of the experiment: co-IP; HEK293T cells co-transfected with V5-PCBP1, Flag-OGT and/or circPRELID2 for 48 h; IP and immunoblot (Figure 7g). On the technique in general: A western blot detects proteins with antibodies after separation by electrophoresis.

Experiment [1] addresses PCBP1 (endogenous) (human (endogenous in HGC-27 and AGS)) (UniProt Q15365). Nature of the experiment: co-IP; endogenous proteins; lysates of HGC-27-shNC or shcircPRELID2 cells under normoxia or hypoxia, HGC-27 lysates untreated or with RNase R, and AGS cells with NC, circPRELID2-WT or circPRELID2-Mut; IP and immunoblot (Figures 7c, 7e, 7f, S7e).

On to V5‐PCBP1 (from UniProt Q15365 1-356), for which the binding result with Flag‐OGT was “binds”.

B1: OGT (endogenous) (enzyme, UniProt O15294 1-1046)
chain: MASSVGNVADSTEPTKRMLSFQGLAELAHREYQAGDFEAAERHCMQLWRQEPDNTGVLLLLSSIHFQCRRLDRSAHFSTLAIKQNPLLAEAYSNLGNVYKERGQLQEAIEHYRHALRLKPDFIDGYINLAAALVAAGDMEGAVQAYVSALQYNPDLYCVRSDLGNLLKALGRLEEAKACYLKAIETQPNFAVAWSNLGCVFNAQGEIWLAIHHFEKAVTLDPNFLDAYINLGNVLKEARIFDRAVAAYLRALSLSPNHAVVHGNLACVYYEQGLIDLAIDTYRRAIELQPHFPDAYCNLANALKEKGSVAEAEDCYNTALRLCPTHADSLNNLANIKREQGNIEEAVRLYRKALEVFPEFAAAHSNLASVLQQQGKLQEALMHYKEAIRISPTFADAYSNMGNTLKEMQDVQGALQCYTRAIQINPAFADAHSNLASIHKDSGNIPEAIASYRTALKLKPDFPDAYCNLAHCLQIVCDWTDYDERMKKLVSIVADQLEKNRLPSVHPHHSMLYPLSHGFRKAIAERHGNLCLDKINVLHKPPYEHPKDLKLSDGRLRVGYVSSDFGNHPTSHLMQSIPGMHNPDKFEVFCYALSPDDGTNFRVKVMAEANHFIDLSQIPCNGKAADRIHQDGIHILVNMNGYTKGARNELFALRPAPIQAMWLGYPGTSGALFMDYIITDQETSPAEVAEQYSEKLAYMPHTFFIGDHANMFPHLKKKAVIDFKSNGHIYDNRIVLNGIDLKAFLDSLPDVKIVKMKCPDGGDNADSSNTALNMPVIPMNTIAEAVIEMINRGQIQITINGFSISNGLATTQINNKAATGEEVPRTIIVTTRSQYGLPEDAIVYCNFNQLYKIDPSTLQMWANILKRVPNSVLWLLRFPAVGEPNIQQYAQNMGLPQNRIIFSPVAPKEEHVRRGQLADVCLDTPLCNGHTTGMDVLWAGTPMVTMPGETLASRVAASQLTCLGCLELIAKNRQEYEDIAVKLGTDLEYLKKVRGKVWKQRISSPLFNTKQYTMELERLYLQMWEHYAAGNKPDHMIKPVEVTESA
For the molecule B1, in experiment [1], the binding entry is recorded as “binds”.
